According to PubChem BioAssay AID493014 (National Center for Advancing Translational Sciences (NCATS), 2011):
In all, about 340,000 compounds went through this assay and about 170 (0.05%) were called active. This list was built around the results that the source calls inconclusive (neither active nor inactive); the mix of calls is not that of the screen. Calls come from the whole dose curve; as a rule, active = well fitted inhibition curve with a large enough effect in the signal ratio, with a control signal flat (not every such curve was filed as active); inconclusive = small, poorly fitted or top-dose-only effect, or effect the other way, or a change in a side signal; inactive = flat fitted curve, though single readings scatter; the % refers to the signal ratio. Potencies of inconclusive entries are doubtful fits and often do not repeat.

Assay: qHTS Assay to Find Inhibitors of Chronic Active B-Cell Receptor Signaling;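 for activity change, negative = inhibition: plate controls were basal doxycycline-induced cells for no effect and cells given 10 µM MG132 for full effect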
Settings: ABC-DLBCL IkBa-CBG/CBR reporter, luminescence ratio (green luciferase fused to IkBa over red control in TMD8 lymphoma cells), 4 h; activity change, negative = inhibition: at 46.1 µM (top of the series)
Procedure, shortened: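 TMD8 human ABC-DLBCL cells with doxycycline-inducible IκBα–green luciferase fusion and unfused red luciferase, in 0.5% FBS medium; compounds up to 46 uM, 4 h at 37C. Green/red luminescence ratio, filter-overlap corrected, fitted to concentration-response curves.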
Potency is the fitted concentration of half-maximal effect.

Row | SMILES | activity change, negative = inhibition | Potency
1 | O=C(OC[C@H]1O[C@@H](OC(=O)c2cc(O)c(O)c(OC(=O)c3cc(O)c(O)c(O)c3)c2)[C@H](OC(=O)c2cc(O)c(O)c(OC(=O)c3cc(O)c(O)c(O)c3)c2)[C@@H](OC(=O)c2cc(O)c(O)c(OC(=O)c3cc(O)c(O)c(O)c3)c2)[C@@H]1OC(=O)c1cc(O)c(O)c(OC(=O)c2cc(O)c(O)c(O)c2)c1)c1cc(O)c(O)c(OC(=O)c2cc(O)c(O)c(O)c2)c1 | inconclusive: 6.29% | 
2 | Cc1nn(-c2ccccc2)c(N2CCCC2)c1/C=N/NC(=S)Nc1ccccc1C(F)(F)F | inactive | 
3 | COc1ccc(NC(=O)c2nnn(Cc3ccc(SC)cc3)c2N)c(OC)c1 | inconclusive: 2.65% | 
4 | Cc1ccc(SC[C@H](Cc2ccccc2)N2CCN(C)CCC2=O)cc1 | inconclusive: 6.59% | 
5 | Nc1nc(NC(=O)c2cccnc2)nn1-c1ccccc1 |  | inconclusive: 15.8 µM [falling, partial curve]
6 | CC(C(=O)N1CCC(C(N)=O)CC1)N(c1ccc(Oc2ccccc2)cc1)S(C)(=O)=O (stereo not drawn) | inconclusive: -1.1% | 
7 | Cc1ccc(C(=O)N/C(=C/c2cn(-c3ccccc3)nc2-c2ccccc2)C(=O)O)cc1 | inactive | 
8 | COc1ccc(C)cc1NC(=O)CN1CCN(S(=O)(=O)c2ccc(C(C)C)cc2)CC1 | inconclusive: 4.03% | 
9 | COc1ccc(C(=O)N/C(=C\c2cn(S(=O)(=O)N(C)C)c3ccccc23)C(=O)NCCCN2CCOCC2)cc1 | inconclusive: -23% | 
10 | CCCc1oc(C(=O)O)cc1CN1CCCC1 | inconclusive: 11.6% | 
11 | CCOc1ccc(-n2c(SCC(=O)O)nc3sc4c(c3c2=O)CCCC4)cc1 | inconclusive: 17.6% | 
12 | CCOC(=O)C1=C(C)NC(SC)=NC1c1ccccc1 (stereo not drawn) | inconclusive: 16.7% | 
13 | O=C(CSc1nc(=O)n(Cc2ccco2)c2c1CCC2)Nc1cccc(F)c1 |  | inconclusive: 1.58 µM [rising, full curve, poor fit]
14 | Cc1cccc(NC(=O)COc2ccccc2C(=O)NC(C)c2ccccc2)c1 (stereo not drawn) | inconclusive: 6.83% | 
15 | COc1cccc(/C=N/NC(=S)Nc2cccnc2)c1 |  | inconclusive: 28.2 µM [cytotoxic, single point]
16 | COc1cc(CC2COC(=O)C2(O)Cc2ccc(O)c(OC)c2)ccc1O (stereo not drawn) | inactive | 
17 | COC(=O)CCC(=O)N1CCCC(CNS(=O)(=O)c2ccc(OC)cc2)C1 (stereo not drawn) | inconclusive: 15.4% | 
18 | O=C(COc1cccc2cccnc12)N1CCc2ccccc21 |  | inconclusive: 35.5 µM [rising, single point]
19 | CC(/C=C1\SC(=O)N(CC(=O)Nc2ccc(O)cc2)C1=O)=C\c1ccccc1 | inconclusive: -16.7% | 
20 | CC(C)(C)c1ccc(C2SCC(=O)N2c2cccc(C(=O)O)c2)cc1 (stereo not drawn) | inconclusive: -0.552% | 
21 | C[C@H](NC(=O)CCCn1nnc2ccccc2c1=O)C(=O)O | inconclusive: 11% | 
22 | COc1ccc(-c2nnc(-c3ccc(C)cc3)o2)cc1 | inconclusive: 7.91% | 
23 | O=C(N/N=C/c1ccccc1C(=O)O)c1ccccc1Br |  | inconclusive: 7.08 µM [falling, full curve]
24 | CC(=O)Nc1ccc(S(=O)(=O)Nc2ccccc2C(=O)N2CCCC2)cc1 | inconclusive: 11.1% | 

Row | SMILES | activity change, negative = inhibition | Potency
25 | Cc1cccc(NC(=O)CNC(=O)COc2ccc(C(=O)c3ccc(F)cc3)cc2)c1C | inactive | 
26 | O=C(c1cc(-c2ccco2)nc2ccccc12)N1CCCC(C(F)(F)F)C1 (stereo not drawn) | inactive | 
27 | CCCCOC(=O)c1ccc(OC(=O)c2sc3ncn(Cc4ccccc4Cl)c(=O)c3c2C)cc1 | inactive | 
28 | Oc1nc(-c2ccc(Cl)cc2)n2ccncc12 | inconclusive: 4.01% | 
29 | CCN(CC(=O)Nc1ccc(OC)c(OC)c1)S(=O)(=O)c1ccc(C)cc1 | inconclusive: 1.38% | 
30 | CCCCC(=O)O[C@H]1CC[C@H]2[C@@H]3CCc4cc(O)ccc4[C@H]3CC[C@]12C |  | inconclusive: 11.2 µM [rising, partial curve, poor fit]
31 | CN1C2C=C3C(C#N)=C(N)C(C#N)(C#N)[C@@H](c4cccs4)C3C1CC2 (stereo partly drawn) |  | inconclusive: 7.31 µM [rising, partial curve, poor fit]
32 | O=C(Cn1ncc2c([nH]c3ccccc32)c1=O)N1CCN(c2ccccn2)CC1 | inactive | 
33 | COc1cccc(-c2nnn(CC(=O)N(CC(C)C)C3CCS(=O)(=O)C3)n2)c1 (stereo not drawn) |  | inconclusive: 20.6 µM [falling, single point]
34 | Cc1ccc(Nc2nc(CSc3nnc(-c4ccncc4)n3-c3ccccc3C)cs2)cc1 | inconclusive: 0.566% | 
35 | FC(F)Sc1ccc(-n2cc(-c3ccc(Cl)cc3)[n+]3c2CCC3)cc1 | inactive | 
36 | CCOC(=O)c1ccccc1NC(=O)c1nc2nccc(C)n2n1 |  | inconclusive: 1.3 µM [falling, partial curve]
37 | Cc1cc(C)cc(NC(=O)NCC(O)COc2ccc([N+](=O)[O-])cc2)c1 (stereo not drawn) | inconclusive: 1.2% | 
38 | FC(F)(F)c1cccc(NC(=S)NC2CCCC2)c1 | inactive | 
39 | CN(Cc1cnccn1)Cc1cn(Cc2ccccc2)nc1-c1ccc2c(c1)OCO2 | inconclusive: 1.71% | 
40 | Cc1cc(N)n2ncc(-c3ccc(Cl)cc3)c2n1 | inconclusive: -1.95% | 
41 | Cc1oc(-c2ccc(Cl)cc2)cc1C(=O)/C(C#N)=C/Nc1cccc(OC(F)(F)F)c1 |  | inconclusive: 2.51 µM [rising, full curve]
42 | O=C(COc1ccccc1)NC(=S)Nc1cccc2cc(O)ccc12 | inactive | 
43 | O=C(Nc1nc(-c2cccnc2)cs1)c1cccc([N+](=O)[O-])c1 | inconclusive: 7.98% | 
44 | CCC(C)c1ccc(NS(=O)(=O)c2c(C)[nH]c(=O)[nH]c2=O)cc1 (stereo not drawn) | inconclusive: -0.0472% | 
45 | O=C([C@@H]1CCCN1C(=O)c1cccs1)N1CCN(S(=O)(=O)c2cccc(F)c2)CC1 | inactive | 
46 | COc1ccccc1C(=O)Nc1cc2cc(Br)ccc2oc1=O | inconclusive: 1.21% | 
47 | COc1ccc(OC)c(N/C(=N/C(=S)Nc2ccccc2)Nc2nc(C)cc(C)n2)c1 | inactive | 
48 | O=C(NCCN1CCN(c2ccccc2)CC1)Nc1ccc(Cl)cc1 | inconclusive: 10.6% | 

Two records drawn at random from the list so far, as already listed:
Row | SMILES | activity change, negative = inhibition | Potency
41 | Cc1oc(-c2ccc(Cl)cc2)cc1C(=O)/C(C#N)=C/Nc1cccc(OC(F)(F)F)c1 |  | inconclusive: 2.51 µM [rising, full curve]
45 | O=C([C@@H]1CCCN1C(=O)c1cccs1)N1CCN(S(=O)(=O)c2cccc(F)c2)CC1 | inactive | 
